From US20260132192A1 (XBIOTECH, published 2026)
No constants are given. Whether binding was seen depends on the method and setting. Some binding calls cover weakened binding; strength is not graded here.

Molecular target: T1, recombinant human IL-1α (human, UniProt P01583 113-271)
T1 sequence (looked up): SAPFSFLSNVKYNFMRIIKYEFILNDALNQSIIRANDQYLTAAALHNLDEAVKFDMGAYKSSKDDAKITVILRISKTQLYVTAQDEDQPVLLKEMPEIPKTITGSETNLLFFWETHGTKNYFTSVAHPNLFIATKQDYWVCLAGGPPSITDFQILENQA
Experiment: ELISA screen of phage supernatants on plates coated with recombinant human IL-1α, anti-FLAG detection

B1: human monoclonal antibody designated XIA12 (antibody, V domains shown)
VH: QVQLVQSGAEVKKPGSSVKVSCKASGGRFTNYAILWVRQAPGQGLQWLGGIIPIFDETDHAQDFQDRLTITVDESMTTAYMELSSLRPEDTAIYYCATGSNSYYGLYWGQGTLVTVSS
VL: DIVMTQSPDFLAVSLGERATINCKSSQSVLYSSDNKNYLAWYQQKAGQPPKLLIYWASTRESGVPDRFSGSGSATDFTLTISSLQAEDVAVYYCQQYYSLPITFGQGTRLEIKR
In the case of B1, the binding is reported as “binds”.
